Article PMC11405755
Results are given in words; binding and its absence hold for the method and conditions named. Binding seen in cells or lysates may run through a third protein. Some results given as binding are weak or reduced against the parent protein; the word gives no strength.

T1: MCL-1 (mouse (endogenous in Hoxb8 macrophage progenitors from C56BL/6 bone marrow)), P97287
T1 chain: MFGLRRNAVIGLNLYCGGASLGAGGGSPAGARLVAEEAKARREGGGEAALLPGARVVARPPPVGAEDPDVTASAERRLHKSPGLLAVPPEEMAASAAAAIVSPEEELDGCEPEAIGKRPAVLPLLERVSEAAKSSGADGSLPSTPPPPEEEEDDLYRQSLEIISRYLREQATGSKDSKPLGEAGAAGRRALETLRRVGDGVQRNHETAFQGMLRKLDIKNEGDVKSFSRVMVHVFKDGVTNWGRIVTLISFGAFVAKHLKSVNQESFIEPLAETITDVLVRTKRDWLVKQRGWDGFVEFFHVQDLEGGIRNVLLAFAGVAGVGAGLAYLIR

B1: BIM, O54918 1-196 (protein)
chain: MAKQPSDVSSECDREGGQLQPAERPPQLRPGAPTSLQTEPQGNPDGEGDRCPHGSPQGPLAPPASPGPFATRSPLFIFVRRSSLLSRSSSGYFSFDTDRSPAPMSCDKSTQTPSPPCQAFNHYLSAMASIRQSQEEPEDLRPEIRIAQELRRIGDEFNETYTRRVFANDYREAEDHPQMVILQLLRFIFRLVWRRH
B2: NOXA (protein, UniProt Q9JM54 1-103)
chain: MPGRKARRNAPVNPTRAELPPEFAAQLRKIGDKVYCTWSAPDITVVLAQMPGKSQKSRMRSPSPTRVPADLKDECAQLRRIGDKVNLRQKLLNLISKLFNLVT
B3: BAK (protein, UniProt O08734 1-209)
chain: MASGQGPGPPKVGCDESPSPSEQQVAQDTEEVFRSYVFYLHQQEQETQGAAAPANPEMDNLPLEPNSILGQVGRQLALIGDDINRRYDTEFQNLLEQLQPTAGNAYELFTKIASSLFKSGISWGRVVALLGFGYRLALYVYQRGLTGFLGQVTCFLADIILHHYIARWIAQRGGWVAALNFRRDPILTVMVIFGVVLLGQFVVHRFFRS

Legend:
[1] = target: T1, MCL-1 (mouse (endogenous in Hoxb8 …)); assay: co-IP; MCL-1 precipitated from CHAPS lysates (flowthrough of the A1-IP) of macrophages differentiated for 7 days; cells untreated or treated with S63845 (10 µM) and/or LPS (1 µg/ml) for 6 h; blots for co-precipitated proteins; conditions: remark: other sources report otherwise
[2] = target: T1, MCL-1 (mouse (endogenous in Hoxb8 …)); assay: co-IP; MCL-1 precipitated with antibody (clone Y37) and Protein G agarose from 1% CHAPS lysates of macrophage progenitors, 4 h at 4 °C; cells untreated or treated with S63845 (5 µM) and/or LPS (1 µg/ml) for 18 h, QVD-OPH (20 µM) in all samples; blots for co-precipitated proteins; conditions: remark: other sources report otherwise
[3] = target: MCL-1 (mouse (endogenous in Hoxb8 macrophage progenitors from C56BL/6 bone marrow)) (UniProt P97287); assay: co-IP; MCL-1 precipitated from CHAPS lysates (flowthrough of the A1-IP) of macrophages differentiated for 7 days; cells untreated or treated with S63845 (10 µM) and/or LPS (1 µg/ml) for 6 h; blots for co-precipitated proteins
[4] = target: MCL-1 (mouse (endogenous in Hoxb8 macrophage progenitors from C56BL/6 bone marrow)) (UniProt P97287); assay: co-IP; MCL-1 precipitated with antibody (clone Y37) and Protein G agarose from 1% CHAPS lysates of macrophage progenitors, 4 h at 4 °C; cells untreated or treated with S63845 (5 µM) and/or LPS (1 µg/ml) for 18 h, QVD-OPH (20 µM) in all samples; blots for co-precipitated proteins

Binder | binding [1] | binding [2] | binding [3] | binding [4]
B1 | binds | binds |  | 
B2 |  |  | binds | binds
B3 |  |  |  | binds
